Experimental data: paper PMC11626796
No constants are given. Whether binding was seen depends on the method and setting. Some results given as binding are weak or reduced against the parent protein; the word gives no strength.

Chains of the proteins cited; added tags and fusions are not shown. Lines headed by an entry give the natural chain unless they say otherwise; changes in a name come on top. A line that says so, or that is headed by a name, gives the form on record, which may keep a tag or linker. Residues count along the entry.
UniProt P21793, residues 31-360: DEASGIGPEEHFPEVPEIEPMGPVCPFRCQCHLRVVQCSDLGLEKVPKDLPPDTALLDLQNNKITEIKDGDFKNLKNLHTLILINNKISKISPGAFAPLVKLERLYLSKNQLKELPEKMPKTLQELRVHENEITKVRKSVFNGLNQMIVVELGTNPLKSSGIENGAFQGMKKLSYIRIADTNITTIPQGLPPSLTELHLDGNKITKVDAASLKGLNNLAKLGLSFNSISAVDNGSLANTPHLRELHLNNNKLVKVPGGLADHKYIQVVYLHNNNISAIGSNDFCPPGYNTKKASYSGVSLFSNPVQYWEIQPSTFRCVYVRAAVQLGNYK
UniProt P51884, residues 19-338: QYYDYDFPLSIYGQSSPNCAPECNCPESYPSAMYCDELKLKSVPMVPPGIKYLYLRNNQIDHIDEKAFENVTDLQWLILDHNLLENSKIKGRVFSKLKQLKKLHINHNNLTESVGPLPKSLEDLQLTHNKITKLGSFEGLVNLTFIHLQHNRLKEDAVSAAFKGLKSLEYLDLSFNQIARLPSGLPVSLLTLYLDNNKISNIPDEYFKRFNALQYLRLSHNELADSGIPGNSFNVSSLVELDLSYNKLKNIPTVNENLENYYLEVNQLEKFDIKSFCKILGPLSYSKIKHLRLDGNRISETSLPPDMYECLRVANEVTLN
UniProt P02454: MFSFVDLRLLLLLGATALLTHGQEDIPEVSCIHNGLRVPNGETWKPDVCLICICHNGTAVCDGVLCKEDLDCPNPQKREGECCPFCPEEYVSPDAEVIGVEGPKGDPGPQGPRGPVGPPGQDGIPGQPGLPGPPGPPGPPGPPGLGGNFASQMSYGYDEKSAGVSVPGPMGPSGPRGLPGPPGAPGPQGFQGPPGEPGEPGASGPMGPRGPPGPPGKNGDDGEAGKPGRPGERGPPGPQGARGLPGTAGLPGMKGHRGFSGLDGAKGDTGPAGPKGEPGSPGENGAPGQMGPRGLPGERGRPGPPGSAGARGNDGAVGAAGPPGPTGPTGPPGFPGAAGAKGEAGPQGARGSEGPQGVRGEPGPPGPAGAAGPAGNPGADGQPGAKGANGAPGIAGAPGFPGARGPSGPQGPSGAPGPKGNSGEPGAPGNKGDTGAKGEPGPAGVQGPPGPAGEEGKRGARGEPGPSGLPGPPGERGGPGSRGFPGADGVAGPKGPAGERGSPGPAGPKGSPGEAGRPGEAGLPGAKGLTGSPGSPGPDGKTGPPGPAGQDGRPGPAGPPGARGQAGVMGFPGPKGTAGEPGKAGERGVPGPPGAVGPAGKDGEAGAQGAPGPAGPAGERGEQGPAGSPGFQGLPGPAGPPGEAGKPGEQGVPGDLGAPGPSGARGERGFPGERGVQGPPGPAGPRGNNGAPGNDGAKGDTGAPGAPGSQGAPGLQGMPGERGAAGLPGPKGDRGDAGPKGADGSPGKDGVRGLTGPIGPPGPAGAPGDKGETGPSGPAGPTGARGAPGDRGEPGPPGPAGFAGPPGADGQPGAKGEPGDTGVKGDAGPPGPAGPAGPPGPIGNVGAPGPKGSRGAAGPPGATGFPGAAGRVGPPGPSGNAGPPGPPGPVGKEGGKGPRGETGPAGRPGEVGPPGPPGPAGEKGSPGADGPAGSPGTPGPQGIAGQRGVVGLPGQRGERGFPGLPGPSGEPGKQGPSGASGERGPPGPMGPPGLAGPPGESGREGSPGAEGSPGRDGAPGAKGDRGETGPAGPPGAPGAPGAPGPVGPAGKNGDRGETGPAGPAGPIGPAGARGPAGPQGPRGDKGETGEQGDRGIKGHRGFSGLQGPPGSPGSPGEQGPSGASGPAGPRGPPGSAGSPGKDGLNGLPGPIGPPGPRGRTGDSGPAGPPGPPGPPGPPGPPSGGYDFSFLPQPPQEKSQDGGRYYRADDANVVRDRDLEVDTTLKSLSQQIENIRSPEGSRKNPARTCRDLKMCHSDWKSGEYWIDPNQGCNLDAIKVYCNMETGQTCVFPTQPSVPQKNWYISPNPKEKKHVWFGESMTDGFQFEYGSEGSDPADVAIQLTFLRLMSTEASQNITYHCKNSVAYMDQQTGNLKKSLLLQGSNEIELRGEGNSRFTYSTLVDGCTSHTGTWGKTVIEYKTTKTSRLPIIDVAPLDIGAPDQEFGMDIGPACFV
UniProt P02466: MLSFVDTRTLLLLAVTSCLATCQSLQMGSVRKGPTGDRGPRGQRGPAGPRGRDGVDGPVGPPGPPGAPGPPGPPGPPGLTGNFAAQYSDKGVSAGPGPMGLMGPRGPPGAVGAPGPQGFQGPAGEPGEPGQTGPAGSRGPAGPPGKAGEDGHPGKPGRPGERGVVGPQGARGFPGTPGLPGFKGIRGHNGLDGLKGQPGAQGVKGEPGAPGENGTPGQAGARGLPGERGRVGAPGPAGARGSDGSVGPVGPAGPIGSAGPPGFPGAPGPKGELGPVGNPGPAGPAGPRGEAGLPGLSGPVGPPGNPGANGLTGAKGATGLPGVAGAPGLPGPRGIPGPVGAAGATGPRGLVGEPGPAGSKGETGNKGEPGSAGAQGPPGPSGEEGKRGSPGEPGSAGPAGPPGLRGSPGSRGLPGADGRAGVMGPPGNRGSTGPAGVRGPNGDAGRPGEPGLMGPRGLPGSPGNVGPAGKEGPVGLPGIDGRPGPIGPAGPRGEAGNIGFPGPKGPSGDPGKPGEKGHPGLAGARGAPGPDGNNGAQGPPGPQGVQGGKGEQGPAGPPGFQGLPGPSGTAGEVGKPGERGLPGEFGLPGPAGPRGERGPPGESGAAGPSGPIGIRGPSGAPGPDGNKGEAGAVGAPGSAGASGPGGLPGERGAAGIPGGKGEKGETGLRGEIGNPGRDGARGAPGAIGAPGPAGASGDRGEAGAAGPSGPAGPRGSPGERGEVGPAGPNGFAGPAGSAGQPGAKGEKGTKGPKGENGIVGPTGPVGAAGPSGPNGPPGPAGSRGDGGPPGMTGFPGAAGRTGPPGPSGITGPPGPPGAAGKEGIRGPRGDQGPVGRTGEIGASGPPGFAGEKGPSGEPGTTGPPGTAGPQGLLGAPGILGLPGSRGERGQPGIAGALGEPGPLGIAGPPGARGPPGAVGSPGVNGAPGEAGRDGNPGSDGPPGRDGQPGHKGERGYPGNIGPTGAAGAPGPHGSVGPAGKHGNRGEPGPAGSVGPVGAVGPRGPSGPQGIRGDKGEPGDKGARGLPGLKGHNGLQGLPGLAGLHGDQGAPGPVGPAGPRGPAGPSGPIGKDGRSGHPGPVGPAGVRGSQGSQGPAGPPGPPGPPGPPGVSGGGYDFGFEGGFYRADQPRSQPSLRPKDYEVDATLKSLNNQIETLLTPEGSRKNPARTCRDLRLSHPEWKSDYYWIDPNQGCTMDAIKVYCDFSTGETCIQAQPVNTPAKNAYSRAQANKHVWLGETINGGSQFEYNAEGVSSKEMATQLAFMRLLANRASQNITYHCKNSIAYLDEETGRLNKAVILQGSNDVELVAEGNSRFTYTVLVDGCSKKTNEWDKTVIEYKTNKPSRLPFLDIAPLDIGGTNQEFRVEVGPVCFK
Recombinant human versican isoform V3 (P13611-4, form named): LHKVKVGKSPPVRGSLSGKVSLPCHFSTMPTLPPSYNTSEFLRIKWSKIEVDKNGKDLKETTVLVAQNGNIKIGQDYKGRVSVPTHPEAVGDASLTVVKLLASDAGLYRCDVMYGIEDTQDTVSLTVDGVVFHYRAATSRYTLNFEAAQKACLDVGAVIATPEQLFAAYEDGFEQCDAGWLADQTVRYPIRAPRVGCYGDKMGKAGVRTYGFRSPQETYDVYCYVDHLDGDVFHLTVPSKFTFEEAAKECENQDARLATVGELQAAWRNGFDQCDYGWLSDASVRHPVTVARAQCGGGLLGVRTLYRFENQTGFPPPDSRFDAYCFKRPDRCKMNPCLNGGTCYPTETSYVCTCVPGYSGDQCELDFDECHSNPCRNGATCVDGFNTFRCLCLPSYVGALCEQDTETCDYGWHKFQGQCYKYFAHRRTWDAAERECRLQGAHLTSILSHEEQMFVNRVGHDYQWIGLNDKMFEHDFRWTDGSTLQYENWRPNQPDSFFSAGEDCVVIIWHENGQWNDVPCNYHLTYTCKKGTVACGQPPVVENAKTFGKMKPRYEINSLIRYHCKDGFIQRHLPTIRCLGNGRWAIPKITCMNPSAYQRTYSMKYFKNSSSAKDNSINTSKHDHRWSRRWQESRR

What was measured:
[1] = biological target: Decorin isolated from bovine cartilage (bovine) (UniProt P21793); experiment: ELISA; solid-phase binding assay: proteoglycan or versican domain coated on a 96-well plate (0.25 ug/ml; 0.05-1 ug/ml in Fig. 2A) at 4 C overnight, blocked with 3% BSA in TTBS or casein; rat tail type I collagen 0.1-5 ug/ml in 1% BSA/PBS overnight at RT; detected with biotin-conjugated anti-collagen I antibody, streptavidin-HRP and TMB; Kd from Scatchard plot; both purified
[2] = biological target: Recombinant human lumican (human) (UniProt P51884); experiment: as above
[3] = biological target: Rat tail type I telo-collagen (rat) (UniProt P02454+P02466); experiment: ELISA; solid-phase binding assay: CLC II peptides (or full-length collagen as positive control) coated on plates, blocked with casein; 10 ug/ml recombinant V3 or G3 incubated overnight; detected with anti-His antibody (HRP) and TMB; normalised to full-length collagen; both purified

| Substance | binding [1] | binding [2] | binding [3] |
| --- | --- | --- | --- |
| Rat tail type I telo-collagen (from UniProt P02454 152-1207; P02466 86-1125) (complex) | binds | binds |  |
| Recombinant human versican isoform V3 (from UniProt P13611-4 21-655) |  |  | binds |
